Results: publication PMC6353898, “A Rational Approach for Creating Peptides Mimicking Antibody Binding” (Scientific Reports, 2019)
Results are given in words; binding and its absence hold for the method and conditions named.

Protein sequences, listed by entry. Tags and fused reporters are not part of them. Residues count along the entry.
UniProt P02769, residues 25-607: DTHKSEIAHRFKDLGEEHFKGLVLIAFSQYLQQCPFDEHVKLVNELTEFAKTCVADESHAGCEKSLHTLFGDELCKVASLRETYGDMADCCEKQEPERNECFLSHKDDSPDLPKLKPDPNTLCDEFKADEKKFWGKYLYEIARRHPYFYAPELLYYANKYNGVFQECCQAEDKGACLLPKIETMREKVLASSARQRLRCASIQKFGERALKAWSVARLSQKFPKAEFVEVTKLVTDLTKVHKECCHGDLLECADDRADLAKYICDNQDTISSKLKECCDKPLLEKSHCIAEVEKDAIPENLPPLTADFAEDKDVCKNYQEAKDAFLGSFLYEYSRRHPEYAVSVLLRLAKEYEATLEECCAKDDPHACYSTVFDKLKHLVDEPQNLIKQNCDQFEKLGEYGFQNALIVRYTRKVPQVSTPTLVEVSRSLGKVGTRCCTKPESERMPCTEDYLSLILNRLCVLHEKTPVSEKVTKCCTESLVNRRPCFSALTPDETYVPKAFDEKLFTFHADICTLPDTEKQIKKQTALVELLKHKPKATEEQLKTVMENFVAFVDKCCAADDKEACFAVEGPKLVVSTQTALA

Biological target: bovine serum albumin (bovine) (UniProt P02769)
Assay: SPR; EGFR (20 µg/mL) or BSA (20 µg/mL) covalently attached (EDC/NHS) to a carboxymethylated dextran chip; peptides injected as analytes at 15 µL/min; 25 °C; PBS with 0.01% Tween 20, pH 7.4; global fit, 1:1 Langmuir model with mass transport; KD from koff/kon; both purified

binding: no binding
Binder: WSGENGPGFYDYEA (designed binder) [Pep11]
